# Reference: PubChem BioAssay AID540276 (National Center for Advancing Translational Sciences (NCATS), 2011)
# In all, about 300,000 compounds went through this assay and about 5,400 (1.8%) were called active. The inconclusive results got no clear call from the source; some entries with a clear call stand among them for comparison. The call rests on the fitted dose curve; tested in HEK293 cells. Where the call is inconclusive, the potency comes from a doubtful curve fit.
# Experiment: qHTS for inhibitors of binding or entry into cells for Marburg Virus
# Settings: Marburg virus pseudotyped entry inhibition, cell reporter; activity change, negative = inhibition: at 37.8 µM (top of the series) unless noted
# On the % scale 0 is the no-effect control and ±100 the full control effect; potency means the concentration at half of the fitted maximal effect.
SMILES,Potency,"activity change, negative = inhibition"
CC1CCCC(C)N1/N=C/c1cc(Br)cc(Br)c1O (stereo not drawn),"inconclusive: 2.51 µM [activator, full curve, poor fit]",
N#Cc1ccccc1Cn1cc(C(=O)C2CC2)c2ccccc21,"inconclusive: 14.6 µM [inhibitor, single point]",
O=C(CN1C(=O)C2CCCCC2C1=O)Nc1cccc(C(F)(F)F)c1 (stereo not drawn),,inactive: 9.7%
COc1ccc(OCC(=O)N/N=C2\CCCc3ccccc32)cc1,,inactive: -14.1%
CCCCCCCCCCCCC/C=C\[C@@H](O)[C@@H](N)CO,"inconclusive: 1 µM [inhibitor, full curve, poor fit]",
c1ccc(CC2CNc3ccccc3CN2)cc1 (stereo not drawn),"inconclusive: 35.5 µM [inhibitor, single point]",
O=C(COc1ccc2c(c1)C(=O)CC1(CCCCC1)O2)NCc1ccccc1,"inconclusive: 14.1 µM [activator, single point]",
COc1ccccc1CNC(=O)c1n[nH]c2ccccc12,,inactive: 0.149% [at 46.1 µM]
Cc1cc(C)cc(NC(c2nnc(-c3cccc(F)c3)o2)c2ccc(F)cc2Cl)c1 (stereo not drawn),"inconclusive: 6.31 µM [inhibitor, full curve]",
C=C(C)C1CC=C(C)/C(=N/NC(=O)c2ccc(NC(=O)CCC)cc2)C1 (stereo not drawn),"inconclusive: 29.1 µM [inhibitor, single point]",
O=C(Nc1cc(Cl)ccc1Cl)c1ccc(-c2ccccc2)cc1,"inconclusive: 22.4 µM [activator, partial curve, poor fit]",
CSc1nc2c(C)c(C)c(C)c(C)c2[nH]1,"inconclusive: 35.5 µM [inhibitor, single point]",
COc1ccc(-c2nc(-c3ccccc3)c(-c3cc([N+](=O)[O-])ccc3C)[nH]2)cc1OC,"inconclusive: 12.6 µM [inhibitor, single point]",
Cc1ccc(-n2ncc3c(SCC(=O)NNC(=O)c4ccco4)ncnc32)cc1,"inconclusive: 7.94 µM [inhibitor, partial curve, poor fit]",
CN(C)S(=O)(=O)c1ccc(/C(O)=C2/C(=O)C(=O)N(Cc3cccnc3)C2c2cccs2)cc1 (stereo not drawn),,inactive: 0.536% [at 46.1 µM]
COc1ccc(C2C(C#N)=C(N)Oc3c2oc(CO)cc3=O)c(OC)c1OC (stereo not drawn),"inconclusive: 16.4 µM [activator, partial curve, poor fit]",
CCCOc1ccccc1C1C(C(=O)OC)=CN(C(C)C)C=C1C(=O)OC,"inconclusive: 3.98 µM [inhibitor, full curve, poor fit]",
O=C(CCC1COc2ccccc2O1)NCc1ccco1 (stereo not drawn),,inactive: 4.6%
CC(C)(C)NC(=O)CSc1nc(-c2ccc(F)cc2)cc(C(F)(F)F)n1,"inconclusive: 17.8 µM [inhibitor, single point]",
Cc1nc2c(-c3ccc(Cl)cc3)cnn2c2c1CCC2,,inactive: 22.7% [at 46.1 µM]
CC(=O)C1=C(C)N(Cc2ccco2)C(=O)NC1c1ccccc1 (stereo not drawn),"inconclusive: 0.0841 µM [activator, partial curve, poor fit]",
CCN(CC)C(=O)C12CC3CC(CC(Br)(C3)C1)C2,"inconclusive: 5.62 µM [activator, single point]",

SMILES,Potency,"activity change, negative = inhibition"
Cn1nc(-c2ccccc2F)c2cc(C(=O)Nc3cc(F)ccc3F)sc21,,inactive: 6.27% [at 46.1 µM]
CC1CCCN(C(=O)CSc2nc3ccccc3o2)C1 (stereo not drawn),,inactive: 19.8%
c1ccc(-c2ccnc3nc(-n4cccc4)nn23)cc1,"inconclusive: 25.9 µM [inhibitor, single point]",
COc1cnn(-c2cc(Oc3ccc(C)cc3)ncn2)c(=O)c1Cl,"inconclusive: 3.98 µM [inhibitor, partial curve, poor fit]",
COc1ccc(S(=O)(=O)N2CCN(c3ccccc3)CC2)cc1-c1noc(C)n1,,inactive: -11.1% [at 46.1 µM]
CC(=O)c1ccc2c(c1)N(C)c1ccccc1S2,"inconclusive: 17.8 µM [activator, partial curve, poor fit]",
O=C(Nc1cccc(Cl)c1)C1CCN(S(=O)(=O)Cc2ccccc2)CC1,"inconclusive: 5.62 µM [inhibitor, single point]",
c1ccc(-c2ccccc2OCCCCn2ccnc2)cc1,"inconclusive: 14.1 µM [inhibitor, partial curve, poor fit]",
COC(=O)c1ccc2nc(NC(=O)C(C)C)sc2c1,"inconclusive: 5.62 µM [activator, single point]",
CS(=O)(=O)c1ccc2nnn(OCC(=O)Nc3ccc(Br)cc3Br)c2c1,"inconclusive: 4.47 µM [inhibitor, full curve, poor fit]",
CC(OC(=O)CCC(=O)N1CCN(S(=O)(=O)c2ccc3ccccc3c2)CC1)C(=O)NC(N)=O (stereo not drawn),"inconclusive: 1.58 µM [activator, partial curve, poor fit]",
O=C(c1ccccc1)N1C(=O)C(c2ccccc2)Oc2ccccc21 (stereo not drawn),"inconclusive: 22.4 µM [inhibitor, single point]",
CCOC(=O)c1sc(=S)n(-c2ccc(C)cc2)c1N,"inconclusive: 35.5 µM [inhibitor, single point]",
COc1ccc(C(C(=O)NC(C)(C)C)N(C(=O)CCC(=O)Nc2cc(C)on2)c2c(C)cccc2C)cc1 (stereo not drawn),"inconclusive: 7.94 µM [inhibitor, partial curve, poor fit]",
Cc1cccc2nc(CSc3nc4ccccc4[nH]3)cn12,"inconclusive: 35.5 µM [activator, single point]",
CCOC(=O)c1c(C)n(C)c2ccc(OC(C)C(=O)OC)cc12 (stereo not drawn),,inactive: 9.83%
O=C(N/N=C/c1ccc2c(c1)OCO2)c1ccc(Cn2cc([N+](=O)[O-])cn2)o1,"inconclusive: 5.62 µM [activator, single point]",
Cc1cccc(NC(=O)Nc2cccc(Oc3c(F)c(F)c(F)c(F)c3F)c2)c1,"inconclusive: 8.2 µM [inhibitor, partial curve]",
CC1CCN(C(=O)c2ccc(NC(=O)C3CCCO3)cc2)CC1 (stereo not drawn),"inconclusive: 35.5 µM [activator, single point]",
COCCCn1c(SCC(=O)n2c(C)c(C)c3ccccc32)nnc1-c1ccoc1C,,inactive: -17.5% [at 46.1 µM]
OC1(c2ccc(OC(F)F)cc2)CSC(=Nc2cccnc2)N1Cc1ccco1 (stereo not drawn),"inconclusive: 11.2 µM [inhibitor, partial curve, poor fit]",

# Three records picked at random from the list so far:
SMILES,Potency,"activity change, negative = inhibition"
Cn1nc(-c2ccccc2F)c2cc(C(=O)Nc3cc(F)ccc3F)sc21,,inactive: 6.27% [at 46.1 µM]
O=C(Nc1cc(Cl)ccc1Cl)c1ccc(-c2ccccc2)cc1,"inconclusive: 22.4 µM [activator, partial curve, poor fit]",
CS(=O)(=O)c1ccc2nnn(OCC(=O)Nc3ccc(Br)cc3Br)c2c1,"inconclusive: 4.47 µM [inhibitor, full curve, poor fit]",
